No constants are given. Whether binding was seen depends on the method and setting. Binding seen in cells or lysates may run through a third protein. Binding can be weak; no strength is given.
Molecular target: Flag-tagged porcine CaV3.1 fragment pCav3.1N_(2209-4506) (porcine)
Test: co-IP

B1: Pasteurella multocida toxin (PMT), recombinant (protein, UniProt P17452 1-1285)
chain: MKTKHFFNSDFTVKGKSADEIFRRLCTDHPDKQLNNVKWKEVFINRFGQMMLDTPNPRKIVEKIINEGLEKQGLKNIDPETTYFNIFSSSDSSDGNVFHYNSLSESYRVTDACLMNIFVERYFDDWDLLNSLASNGIYSVGKEGAYYPDHDYGPEYNPVWGPNEQIYHSRVIADILYARSVWDEFKKYFMEYWQKYAQLYTEMLSDTFLAMAIQQYTRQTLTDEGFLMVCNTYYGNKEEVQITLLDIYGYPSTDIICIEQKGLPTPKVILYIPGGTQPFVEFLNTDDLKQWIAWHLKDNKHMVAFRKHFSLKQRQEGETFTGIDKALQYIAEESPEWPANKYILYNPTHLETENLFNIMMKRTEQRMLEDSDVQIRSNSEATRDYALSLLETFISQLSAIDMLVPAVGIPINFALSATALGLSSDIVVNGDSYEKRKYGIGSLVQSALFTGINLIPVISETAEILSSFSRTEEDIPAFFTEEQALAQRFEIVEEELHSISPDDPPREITDENLHKIRLVRLNNENQPLVVLRRLGGNKFIRIEPITFQEIKGSLVSEVINPVTNKTYYVSNAKLLGGSPYSPFRIGLEGVWTPEVLKARASVIGKPIGESYKRILAKLQRIHNSNILDERQGLMHELMELIDLYEESQPSSERLNAFRELRTQLEKALYLPEMEALKKQILQIPNKGSGAARFLLRTAMNEMAGKTSESTADLIRFALQDTVISAPFRGYAGAIPEAIDFPVKYVIEDISVFDKIQTNYWELPAYESWNEGSNSALLPGLLRESQSKGMLSKCRIIENSLYIGHSYEEMFYSISPYSNQVGGPYELYPFTFFSMLQEVQGDLGFEQAFATRNFFNTLVSDRLSLMENTMLLTESFDYTPWDAIYGDINYDEQFAAMSINERIEKCMNTYRGVAFQNSSKSIDFFLNNLTTFIDNGLTEIAISDLPYDIVQQEISQFLQGSNEWKTLDAMLFNLDKGDINGAFRKLLQSAKDNNIKFRAIGHSDNSVPPFNNPYKSLYYKGNIIAEAIEKLDREGQKFVVFADSSLLNSTPGTGRPMPGLVQYLKIPATVVDSDGAWQFLPDVASSRVPIEVTELENWQVLTPPQGKILGLKQFKLTAGFPTEQSRLPLLENSVSEDLREELMQKIDAIKNDVKMNSLVCMEAGSCDSVSPKVAARLKDMGLEAGMGASITWWRREGGMEFSHQMHTTASFKFAGKEFAVDASHLQFVHDQLDTTILILPVDDWALEIAQRNRAINPFVEYVSKTGNMLALFMPPLFTKPRLTRAL
binding: binds
